PubChem BioAssay AID1508588 – Peter MacCallum Cancer Centre, 2020
Here is a random part of about 18,000 reagents. 790 of all reagents (4.4%) were called active. 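Calls rest on a combination of fold-change classes in drug and vehicle arms, not all shown here.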 Entries without a mark were called inactive. Reagent sequences are not shown.

Test: 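Genome-wide search for knock-downs that heighten vemurafenib action in melanoma cells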 (primary screen)
Cell system: human WM266.4 melanoma cells (BRAF V600 mutant)
Reagent: siRNA pool against human genes, 40 nM
Duration: 96 h from transfection to read-out
Treatment: vemurafenib 300 nM (about IC25), added 48 h after transfection, for 48 h; comparison arm got DMSO vehicle only
Detection: 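Cell gain (DAPI nuclei at end minus before drug, mean of two replicates) and medium lactate by absorbance per cell, both as ratio to non-targeting siRNA, also grouped into fold-change classes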
Reading the numbers: cell gain with vemurafenib: higher = more cell gain than with non-targeting siRNA; lactate per cell with vemurafenib: higher = more lactate made per cell
Active means: 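Enhancement is called by pairing each knock-down's vehicle-arm and drug-arm fold-change classes for viability or glycolysis; which class combinations qualify is not given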
Calls: active = enhances vemurafenib effect; inactive = no enhancement seen

| Target gene | cell gain with vemurafenib | lactate per cell with vemurafenib |
| --- | --- | --- |
| KMT5C (lysine methyltransferase 5C) | 0.95 | 0.6 |
| KDM1A (lysine demethylase 1A) | 0.63 | 0.32 |
| SBF2 (SET binding factor 2) | 0.35 | 1.28 |
| KRTAP5-2 (keratin associated protein 5-2) | 0.57 | 0.52 |
| MS4A5 (membrane spanning 4-domains A5) | 0.39 | 0.67 |
| VAT1L (vesicle amine transport 1 like) | 0.26 | 1.27 |
| CHST8 (carbohydrate sulfotransferase 8) | 0.09 | 1.07 |
| GSTCD (glutathione S-transferase C-terminal domain containing) | 0.52 | 1.1 |
| C1orf122 (chromosome 1 open reading frame 122) | 0.84 | 1.06 |
| CRYBA2 (crystallin beta A2) | 0.26 | 1.44 |
| SCIMP (SLP adaptor and CSK interacting membrane protein) | 0.31 | 1.53 |
| FSTL1 (follistatin like 1) | 1.36 | 0.89 |
| MOGAT2 (monoacylglycerol O-acyltransferase 2) | 0.69 | 0.74 |
| RNASE12 (ribonuclease A family member 12 (inactive)) | 0.72 | 0.96 |
| BEX3 (brain expressed X-linked 3) | 0.27 | 2.62 |
| OR8H1 (olfactory receptor family 8 subfamily H member 1) | 0.92 | 0.9 |
| DEFB115 (defensin beta 115) | 0.68 | 0.52 |
| DEFB116 (defensin beta 116) | 0.72 | 0.48 |
| CLYBL (citramalyl-CoA lyase) | 1.14 | 0.69 |
| SEMA3D (semaphorin 3D) | 0.7 | 0.94 |
| TEAD1 (TEA domain transcription factor 1) | 0.43 | 1.39 |
| RPGR (retinitis pigmentosa GTPase regulator) | 0.73 | 0.64 |
| CRYGS (crystallin gamma S) | 0.7 | 0.6 |
| LDB3 (LIM domain binding 3) | 0.12 | 1.59 |
| KCNIP2 (potassium voltage-gated channel interacting protein 2) | 0.58 | 1.16 |
| CTDSP2 (CTD small phosphatase 2) | 0.76 | 0.86 |
| OR2A42 (olfactory receptor family 2 subfamily A member 42) | 0.25 | 1.4 |
| LEF1 (lymphoid enhancer binding factor 1) | 0.29 | 1.23 |
| EDN2 (endothelin 2) | 0.36 | 0.42 |
| PODXL (podocalyxin like) | 0.82 | 0.56 |
| STAMBP (STAM binding protein) | 0.66 | 0.89 |
| SLC30A9 | 0.3 | 0.96 |
| OS9 (OS9 endoplasmic reticulum lectin) | 1.15 | 0.98 |
| ZNF827 (zinc finger protein 827) | 0.83 | 0.6 |
| OR7C1 (olfactory receptor family 7 subfamily C member 1) | 1.01 | 0.66 |
| XPC | 0.62 | 1.14 |
| PAPSS2 (3'-phosphoadenosine 5'-phosphosulfate synthase 2) | 0.55 (active) | 0.36 |
| SRSF3 (serine and arginine rich splicing factor 3) | -0.06 | 2.73 |
| DENND2B (DENN domain containing 2B) | 0.61 | 0.84 |
| DEFB103A (defensin beta 103A) | 0.33 | 1.31 |
| DOP1B (DOP1 leucine zipper like protein B) | 0.54 | 0.62 |
| ULBP3 (UL16 binding protein 3) | 0.63 | 0.82 |
| CPNE9 (copine family member 9) | 0.54 | 0.87 |
| GRB7 (growth factor receptor bound protein 7) | 0.71 | 0.73 |
| SCRN2 (secernin 2) | 0.53 | 1.07 |
| MARK1 (microtubule affinity regulating kinase 1) | 0.16 (active) | 0.71 |
| OR1D5 (olfactory receptor family 1 subfamily D member 5) | 0.73 | 1.02 |
| SNTG2 (syntrophin gamma 2) | 1.03 | 0.76 |
| TKTL2 (transketolase like 2) | 0.46 | 1.12 |
| BUB3 (BUB3 mitotic checkpoint protein) | 0.41 | 2.08 |
| SLC67A1 | 0.71 | 0.81 |
| NPFF (neuropeptide FF-amide peptide precursor) | 0.42 (active) | 0.6 |
| WASF3 (WASP family member 3) | 1.05 | 0.84 |
| CLUH (CLUH binding protein of NUMT mRNA) | 0.58 | 0.59 |
| INTS1 (integrator complex subunit 1) | 0.06 | 1.73 |
| ORMDL2 (ORMDL sphingolipid biosynthesis regulator 2) | 0.67 | -0.33 |
| MLN (motilin) | 0.39 | 0.85 |
| OTX2 (orthodenticle homeobox 2) | 0.79 | 0.86 |
| PRSS1 (serine protease 1) | 0.67 | 0.68 |
| NDUFV3 (NADH:ubiquinone oxidoreductase subunit V3) | 0.73 | 0.64 |
| AGA (aspartylglucosaminidase) | 1.21 | 0.58 |
| UPF1 (UPF1 RNA helicase and ATPase) | 0.27 | 1.33 |
| GPATCH4 (G-patch domain containing 4 (gene/pseudogene)) | 0.38 | 1.34 |
| GID4 (GID complex subunit 4 homolog) | 0.84 | 0.58 |
| HECTD4 (HECT domain E3 ubiquitin protein ligase 4) | 0.81 | 1.12 |
| CCL3L1 (C-C motif chemokine ligand 3 like 1) | 0.41 | 0.29 |
| TLE2 (TLE family member 2, transcriptional corepressor) | 1.01 | 0.84 |
| CIMIP2A (ciliary microtubule inner protein 2A) | 0.23 | 1.61 |
| ZBTB22 (zinc finger and BTB domain containing 22) | 1 | 0.53 |
| GORASP2 (golgi reassembly stacking protein 2) | 0.67 | 1.15 |
| GRHL3 (grainyhead like transcription factor 3) | 0.8 | 0.24 |
| OSTCP1 (oligosaccharyltransferase complex subunit pseudogene 1) | 0.66 | 0.84 |
| UBLCP1 (ubiquitin like domain containing CTD phosphatase 1) | 0.6 | 0.97 |
| OR4Q3 (olfactory receptor family 4 subfamily Q member 3) | 1.15 | 0.5 |
| TNRC6A (trinucleotide repeat containing adaptor 6A) | 0.43 | 1.36 |
| SCN9A (sodium voltage-gated channel alpha subunit 9) | 0.7 | 0.26 |
| BRD2 (bromodomain containing 2) | 0.62 | 1.17 |
| SH3BGRL2 (SH3 domain binding glutamate rich protein like 2) | 0.55 | 1.15 |
| USF1 (upstream transcription factor 1) | 0.62 | 1.34 |
| OR7E85BP | 0.27 | 0.82 |
| LOC652859 (retired record) | 1.05 | 0.82 |
| LRRC37A (leucine rich repeat containing 37A) | 0.3 | 1.01 |
| ANOS1 (anosmin 1) | 0.48 | 1.31 |
| PUM1 (pumilio RNA binding family member 1) | 0.17 | 1.5 |
